Library screen at single concentrations

Sequences of proteins named here, by UniProt entry; tags and fusion partners are left off. Residues count along the entry.
UniProt Q8IDJ8, 1-583: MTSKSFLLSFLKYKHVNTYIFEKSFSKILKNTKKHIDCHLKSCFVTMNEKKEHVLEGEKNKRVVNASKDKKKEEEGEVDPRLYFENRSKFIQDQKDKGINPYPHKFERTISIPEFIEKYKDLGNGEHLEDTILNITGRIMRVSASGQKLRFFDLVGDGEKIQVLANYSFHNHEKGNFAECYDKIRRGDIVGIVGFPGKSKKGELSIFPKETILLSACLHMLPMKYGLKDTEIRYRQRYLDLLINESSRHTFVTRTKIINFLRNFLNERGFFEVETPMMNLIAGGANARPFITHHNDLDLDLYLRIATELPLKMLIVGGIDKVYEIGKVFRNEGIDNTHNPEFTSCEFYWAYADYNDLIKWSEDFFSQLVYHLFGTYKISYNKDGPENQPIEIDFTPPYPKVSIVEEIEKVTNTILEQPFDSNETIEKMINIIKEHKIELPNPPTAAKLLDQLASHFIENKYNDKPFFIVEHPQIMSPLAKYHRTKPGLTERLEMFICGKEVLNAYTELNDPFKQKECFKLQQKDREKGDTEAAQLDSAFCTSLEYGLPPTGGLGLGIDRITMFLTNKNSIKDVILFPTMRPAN

Source: ChEMBL document CHEMBL3988442, “University of Dundee, Small-Polar-MMV Screening Library” (2021).

The filed quantity is “Percent Effect” (%). The record does not define 0% and 100%; most values in the screen are far below 50% and negative numbers occur (in some assays of this library far below -100). Compounds were drawn at random from those tested, without regard to their results.

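Enzyme assay of the cytosolic lysyl-tRNA synthetase in 384-well plates, read by luminescence. Target: Lysine-tRNA ligase, Plasmodium falciparum 3D7 (UniProt Q8IDJ8). Compounds at 30 µM. Higher reads as stronger inhibition, judged from the few compounds that gave an IC50. About 69,000 compounds were tested under these conditions; 0.071% (about 49) showed 50% or more at least once.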

structure	percent effect
CCN(CC1=CCN(C)CC1)C(=O)CCOC	7.633
CC(C)[C@H]1CN(C(=O)CO)C[C@@H]1N(C)C	2.142
COC(=O)c1cccc(C(=O)N2CCN(C(=O)N(C)C)CC2(C)C)c1	0.5072
Cc1n[nH]c(C)c1C1CCCN1C(=O)c1cc(Br)c[nH]1 (centres undefined)	-0.8889
Cc1ccccc1CN1CCN(c2ncnc3c2NC(=O)CN3)CC1	5.64
CNC(=O)NC(=O)CN1CCN(CC2CC2)c2ccccc21	0.4038
Cn1ncc(N2CCOC(CCNC(=O)NC(C)(C)C)C2)cc1=O (centres undefined)	0.5866
CC(C(=O)NCc1ccnc(N(C)C)c1)n1cccn1 (centres undefined)	-1.543
Cc1cc(C(=O)NCc2ccc(F)cc2)c2c(C3CCNC3)noc2n1 (centres undefined)	6.536
COc1cc(C)nc(N2CCN(C(=O)CCc3ccco3)CC2)n1	5.242
Cc1nccc(C2CN(Cc3cc[nH]n3)CCO2)n1 (centres undefined)	3.766
Cc1nc2cc(O)nn2c(C)c1CCC(=O)NCCc1nccn1C	0.2897
Cc1cc(C)n(C2CCCN(C(=O)c3ccc(N(C)C)nn3)C2)n1 (centres undefined)	7.444
Clc1cccc(Cl)c1CNCCOc1ccccn1	4.311
O=C(CSC1CCc2ccccc2NC1=O)Nc1ccc(CCO)cc1 (centres undefined)	1.491
O=C(Cn1nc(Br)nc1Br)N1CCCC1	-1.898
O=C(NC[C@H]1OC[C@@H](NC(=O)C2CCCC2)[C@@H]1O)c1ccncc1	-1.412
CN(C)CC1(O)CCCN(c2ccnc3c(C(F)(F)F)cccc23)C1 (centres undefined)	4.76
CC(=O)NCc1nnn2c1CN(c1ncc(C)cn1)CCC2	2.125
CSc1nc(N)cc(N2C[C@@H]3CC[C@H](C2)N(Cc2cscn2)C3=O)n1	2.456
Cc1ncoc1C(=O)N1CCOC(CC2CCCCC2)C1 (centres undefined)	4.755
Cc1ccc(CCN2CCC(N(C)Cc3noc(C4CC4)n3)C2)cc1 (centres undefined)	5.556
O=C(c1ccc(-c2ccc(O)nc2)s1)N1CCSCC1	8.758
COCCN1CCCCC12CC(=O)N(c1ccccc1OC)C2 (centres undefined)	2.921
O=C(C1CCCO1)N1CCC(Cn2cc(C3CCCC3)nn2)CC1 (centres undefined)	-0.09557
c1cc(N2CCCC2c2cnccn2)ncn1 (centres undefined)	-0.3575
Cc1noc(C)c1CN1CCN(Cc2nccn2C)C(C)C1 (centres undefined)	8.474
CCN1CCCc2cc(CN3CCc4nc(C)[nH]c(=O)c4C3)ccc21	-0.9254
Cc1ccc(N2CCC(N3C[C@@H](CN(C)C)[C@@H](CO)C3)CC2)cc1	2.574
Cc1cncc(C(=O)N2CC[C@@H]3[C@H]2CCC(=O)N3CCN(C)C)c1	3.331
CCOC(=O)N1CCN(c2nc(NC)c3ccccc3n2)CC1	6.006
CC(NC(=O)NCCCN(C)S(C)(=O)=O)c1ccc(Cl)cc1 (centres undefined)	-0.3296
CCc1nsc(NC2CC(=O)N(C3CC3)C2)n1 (centres undefined)	1.249
CN1CCN(c2ccc(NC(=O)c3cccs3)c(C(F)(F)F)c2)CC1	1.931
CN(Cc1ncc[nH]1)CC(c1cccs1)N1CCOCC1 (centres undefined)	1.545
CC(=O)N1CCN(CC(N)=O)CC(COc2ccccc2)C1 (centres undefined)	7.446
CSc1nnc(C2CCN(C(=O)N3CCCC3)CC2)n1C(C)C	-1.78
CCc1nc(NS(=O)(=O)c2ccc(F)cc2Cl)no1	1.149
CC(C)c1noc(CN(C)C(=O)c2ncn[nH]2)n1	-0.789
COc1ccc(CN[C@@H]2CO[C@H](CNC(=O)NC(C)C)[C@H]2O)cc1	2.056
O=C(CCc1ccco1)N1CCC(Oc2ccccc2)(C(=O)O)CC1	-1.891
Cn1cc(N2CCC3(CCCN(Cc4ccoc4)C3)C2=O)cn1 (centres undefined)	2.357
Cc1cc(CN(C)C(=O)C2CCCN(C(=O)c3ccc(Cl)cc3)C2)no1 (centres undefined)	2.998
O=C(Nc1cc(N2CCOCC2)ncn1)c1cnccn1	2.976
CC(C)c1noc(OCc2cccc(C#N)c2)n1	1.382
CN1CCC(N2CCC(c3ccccc3C(=O)O)C2)CC1 (centres undefined)	0.9167
c1cncc(C(Cn2cnnc2)N2CCOCC2)c1 (centres undefined)	4.011
CCc1noc(CNc2c(F)cccc2-n2cccn2)n1	-1.085
CCOCCC1(CNC(=O)c2ccsc2)CCC1	3.742
CCS(=O)(=O)N1CCC2(CC1)CC[C@@]1(C(=O)N(C)C)CN(C)C[C@@H]21	2.077
Cn1cnc2c1CCN(Cc1ccc(C(=O)N3CCCC3)cc1)C2	-2.157
CC(C)=CCN1CCC2(CC1)CC(=O)N(Cc1cc(F)cc(F)c1)C2	3.547
Cc1ncc(C(=O)Nc2cncnc2N(C)C)c(Cl)c1Cl	5.525
O=C(Cc1n[nH]c(-c2cncc(Br)c2)n1)NCc1ccccn1	6.238
CN(C)C(=O)N1CCCC(C(=O)N(C)Cc2cnc(N)nc2)C1 (centres undefined)	-0.6929
CC(CN1CCOCC1)NC(=O)Nc1cccnc1-n1cccn1 (centres undefined)	2.179
O=C(O)Cn1nc(C2CC2)c2c(-c3ccco3)ccnc21	-1.35
CCNC(=O)NC[C@H]1COCc2nc3cc(OC)ccc3n21	6.348
O=C1CCC2(CCCN(C(=O)c3ccc[nH]3)C2)CN1Cc1cccnc1 (centres undefined)	-0.3215
Nc1cc(CCC2CN(Cc3ccc4cc[nH]c4c3)CCO2)ccn1 (centres undefined)	-1.535
CCC(C)C(=O)NCc1cc(Br)c(OC)c(OC)c1 (centres undefined)	2.761
O=C(CCc1nc(C2CC2)no1)c1ccc2c(c1)OCCO2	3.518
COCC1CN(C(=O)C2=CCCCC2)Cc2cnn(CC3CC3)c21 (centres undefined)	3.733
CC(C)CCC(=O)N1CCN(C(=O)c2ccc(-n3cccn3)cc2)CC1	0.19
O=C(NCc1ccc(-c2ccn[nH]2)cc1)N1CCC(N2CCCC2)C1 (centres undefined)	2.035
CCCc1nnsc1C(=O)NCC(O)c1ccc(SC)cc1 (centres undefined)	5.006
CN(C)C(=O)CN1C[C@@H]2CC[C@H](C1)N(Cc1ccc(Cl)cc1Cl)C2	7.422
Cc1nc2c(c(C)c1CC(=O)NCc1ccccc1F)c(=O)[nH]n2C	0.2574
CC(NC(=O)NCC1(c2ccc(F)cc2)CC1)c1nncn1C (centres undefined)	0.7361
Cc1nnc([C@H]2C[C@@H]3CCN(Cc4ccc(C)o4)C[C@H]3O2)[nH]1	5.985
Cn1ccc(C(=O)N(CC(F)F)c2cccc(Cl)c2)cc1=O	1.323
CC(C)(C)c1cnc(CN2C(=O)CC3(CCSC3)C2=O)o1 (centres undefined)	-0.2786
Cc1ccc2oc([C@H]3CCN(Cc4ccccc4)C3)nc2c1	4.929
Cc1ccc(N2CCCC(NC(=O)CCc3ccccn3)C2=O)cc1 (centres undefined)	3.972
CC(=O)NCCNC(=O)c1nc(C2CC2)n(-c2ccccc2Cl)n1	2.558

Repeated from the top, 5 entries:

{"structure": "CCN(CC1=CCN(C)CC1)C(=O)CCOC", "percent effect": 7.633}
{"structure": "CC(C)[C@H]1CN(C(=O)CO)C[C@@H]1N(C)C", "percent effect": 2.142}
{"structure": "COC(=O)c1cccc(C(=O)N2CCN(C(=O)N(C)C)CC2(C)C)c1", "percent effect": 0.5072}
{"structure": "Cc1n[nH]c(C)c1C1CCCN1C(=O)c1cc(Br)c[nH]1", "stereo": "centres undefined", "percent effect": -0.8889}
{"structure": "Cc1ccccc1CN1CCN(c2ncnc3c2NC(=O)CN3)CC1", "percent effect": 5.64}